Laboratory results from patent US6949647B2, “Synthesis of pancratistatin” (Arizona Board of Regents, priority 2000, dated 2005).
For at least one compound, name, drawing or mass did not settle the structure.

Experiments:
NCI-H460 = assay: Human cancer cell line growth inhibition, lung-NSC NCI-H460; details: total growth inhibition
DU-145 = assay: Human cancer cell line growth inhibition, prostate DU-145

O=C(OC1C(O)C(O)C(O)C2NC(=O)c3c(cc4c(c3O)OCO4)C21)c1ccccc1 (centres unmarked) [Compound 13, Pancratistatin 1-Benzoate]
TGI (NCI-H460): 1.1.× 10^−3 μg/ml | GI50 (DU-145): <l.0 × 10^−3 μg/ml
